# Experimental data: the supplement of paper PMC11098740
# Amino acid sequences for entries named in this document (tags omitted).
# UniProt O14980, whole entry: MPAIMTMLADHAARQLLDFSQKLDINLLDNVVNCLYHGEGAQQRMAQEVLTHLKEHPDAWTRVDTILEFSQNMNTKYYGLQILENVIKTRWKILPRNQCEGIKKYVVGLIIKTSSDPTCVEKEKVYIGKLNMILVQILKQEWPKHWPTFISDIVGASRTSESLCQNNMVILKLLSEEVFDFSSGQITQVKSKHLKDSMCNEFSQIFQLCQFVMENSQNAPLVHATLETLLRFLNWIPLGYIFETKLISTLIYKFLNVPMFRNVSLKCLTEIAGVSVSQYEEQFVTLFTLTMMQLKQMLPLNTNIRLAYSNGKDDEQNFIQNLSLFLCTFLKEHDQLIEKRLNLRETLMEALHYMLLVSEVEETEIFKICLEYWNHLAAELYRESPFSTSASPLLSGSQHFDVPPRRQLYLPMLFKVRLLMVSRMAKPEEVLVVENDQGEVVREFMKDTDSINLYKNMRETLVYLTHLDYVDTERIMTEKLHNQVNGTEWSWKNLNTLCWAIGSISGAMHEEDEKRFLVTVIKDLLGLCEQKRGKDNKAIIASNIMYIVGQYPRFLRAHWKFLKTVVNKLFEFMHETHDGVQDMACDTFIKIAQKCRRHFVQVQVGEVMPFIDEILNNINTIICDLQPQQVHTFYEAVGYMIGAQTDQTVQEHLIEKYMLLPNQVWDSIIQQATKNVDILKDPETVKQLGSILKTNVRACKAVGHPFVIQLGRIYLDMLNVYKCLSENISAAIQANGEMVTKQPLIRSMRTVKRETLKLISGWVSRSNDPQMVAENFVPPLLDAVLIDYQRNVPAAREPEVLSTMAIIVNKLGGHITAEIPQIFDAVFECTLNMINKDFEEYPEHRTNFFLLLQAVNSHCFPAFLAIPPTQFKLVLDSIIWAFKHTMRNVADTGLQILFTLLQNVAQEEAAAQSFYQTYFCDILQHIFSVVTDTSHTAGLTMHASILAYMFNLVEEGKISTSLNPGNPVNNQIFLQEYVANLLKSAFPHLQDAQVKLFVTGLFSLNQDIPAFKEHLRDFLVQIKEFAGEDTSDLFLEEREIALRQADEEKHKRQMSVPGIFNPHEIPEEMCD
# Some of the results follow. Single values are uncertain, as repeats are few or missing.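 Test system: a mixed pool of 41 HAP1 clones in which 61 cancer-associated proteins carry fluorescent tags inserted into introns, and each clone is identified from its image pattern. Read-outs are compared with DMSO-treated control wells. The BRD4 degrader dBET6 served as the positive control.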
# How the values were obtained:
# [1] = molecular target: XPO1 (intron 15 mScarlet tag, HAP1) (UniProt O14980); assay: XPO1 fluorescence intensity change vs DMSO (log2 fold change); higher = more XPO1 protein; details: 6 h
# [2] = molecular target: BRD4 (intron 10 mScarlet tag, HAP1) (UniProt O60885); assay: BRD4 median nuclear fluorescence intensity change vs DMSO (log2 fold change); higher = more BRD4 protein; details: 6 h
Structure (SMILES),XPO1 fluorescence intensity change (log2) [1],BRD4 median nuclear fluorescence intensity change (log2) [2]
CCOc1cc(Cl)c(S(=O)(=O)N2c3ccccc3CC2C)cc1Cl (stereo not drawn) (10 µM),0.0922,-0.0219
CCOC(=O)c1c(-c2ccc(C)o2)csc1NC(=O)CCCl (10 µM),0.096,0.107
C/C=C/c1cc(C(=O)N2CCC(C)Sc3ccccc32)cc(OC)c1OC (stereo not drawn) (0.1 µM),-0.0931,0.00327
Nc1nc(CCl)nc2sc3c(c12)CCCCC3 (10 µM),-0.0643,0.0611
CC(C)(C)P(=NC(=S)NCCCO)(N1CCCCCC1)N1CCCCCC1 (0.1 µM),0.0484,0.0122
Cc1cccc(/C=C/C(=O)c2ccc(O)c(CCCl)c2)c1 (10 µM),-0.114,-0.0425
c1ccc(Cn2cc(Nc3nc4ccccc4s3)cn2)cc1 (1 µM),-0.0216,-0.0852
O=C(/C=C/c1ccc(Cl)cc1)c1ccc(O)c(CCCl)c1 (1 µM),-0.165,-0.0388
COc1ccc2c(c1)CNC(c1ccccc1)C2 (stereo not drawn) (10 µM),-0.108,-0.022
CC(C)c1ccc(C(Nc2ccccn2)c2ccc3cccnc3c2O)cc1 (stereo not drawn) (10 µM),0.157,0.0666
CN(C)c1ccc(C(=NC(=O)c2cccc(S(=O)(=O)N3CCCCC3)c2)c2ccc(N(C)C)cc2)cc1 (0.1 µM),-0.0634,0.12
Cc1onc(-c2c(Cl)cccc2Cl)c1C(=O)N1CCN(c2cccc(C(F)(F)F)c2)CC1 (1 µM),-0.0672,0.0202
CC(C)(C)c1ccc(S(=O)(=O)NCc2ccc(C(=O)Nc3cccnc3)cc2)cc1 (0.1 µM),0.069,0.0823
ClCc1nc(-c2ccccc2Cl)c2cc(Cl)ccc2n1 (10 µM),-0.109,-0.0948
O=C(/C=C/c1ccccc1Br)c1ccc(O)c(CCCl)c1 (10 µM),-0.0626,-0.0925
COc1ccc(C(C)(C)C)cc1NC(=O)c1cc(OC)c2c(c1)OCCO2 (10 µM),-0.0591,1.68e-05
Cc1cccc(-n2ccnc2SCC(=O)Nc2sccc2C(N)=O)c1C (1 µM),-0.039,-0.0656
O=C(Cc1noc2ccccc12)Nc1ccc(Cn2ccccc2=O)cc1 (10 µM),0.138,0.0899
CCOc1c(Cl)cc(C(=O)Nc2cccc3cn[nH]c23)cc1OC (10 µM),-0.0509,-0.0108
CC1CCc2c(sc3nc(CCCl)nc(N)c23)C1 (stereo not drawn) (10 µM),-0.0281,0.0428

Structure (SMILES),XPO1 fluorescence intensity change (log2) [1],BRD4 median nuclear fluorescence intensity change (log2) [2]
N#CC(C#N)=C1C=CC=CN1/C(=C/c1ccccc1)C(=O)c1ccccc1 (10 µM),0.0372,0.0546
O=C(CSc1nnc(-c2ccccc2)o1)Nc1ccccc1F (10 µM),0.045,-0.00967
CCn1c(SC(C)C(=O)Nc2cc(C)no2)nc2ccccc21 (stereo not drawn) (10 µM),0.121,0.117
O=C(CSc1nc2ccccc2[nH]1)Nc1ccc(Br)cn1 (0.1 µM),0.0196,-0.00479
COC(=O)Nc1ccc(NC(=O)C2(C)CCCc3ccccc32)cc1 (stereo not drawn) (10 µM),-0.0208,0.0269
COc1cc2c(cc1OC)C(c1cccs1)N(C(=O)Nc1ccccc1)CC2 (stereo not drawn) (10 µM),-0.184,-0.0483
CCCCCCOc1ccc(C(=O)NN)cc1 (10 µM),-0.226,0.0296
COc1cn(-c2ccccc2)nc1C(=O)Nc1cccnc1N1CCCC1 (1 µM),0.0341,0.111
COc1ccc(C2=Nn3c(nnc3-c3ccc(OC)cc3OC)SC2C)cc1 (stereo not drawn) (0.1 µM),-0.0248,0.096
COCc1cc(C(=O)NCc2ccc(-c3ccc(O)cc3)cc2)no1 (10 µM),0.0382,0.173
COC(=O)C1=C(C)NC(C)=C(C#N)C1c1cccs1 (stereo not drawn) (10 µM),0.104,0.0149
CC(C)c1ccccc1Nc1nc(-c2ccc(S(N)(=O)=O)cc2)cs1 (10 µM),-0.442,-0.0824
CCCCn1c(=O)[nH]c(=O)c2c1nc(CCl)n2C (10 µM),0.166,0.0615
O=C(/C=C/c1cc(Br)ccc1F)c1ccc(O)c(CCCl)c1 (10 µM),-0.126,-0.11
COc1ccc(/C=C(\C(=O)c2cccs2)N2C=CC=CC2=C(C#N)C#N)c(OC)c1 (10 µM),-0.014,0.0855
Cc1cc(C(=O)N(C)Cc2cnn(C)c2)c(C)n1Cc1ccco1 (10 µM),0.117,0.131
Nc1nc(CCl)nc(Nc2ccc(F)cc2)n1 (10 µM),0.237,0.132
COC(=O)c1cccc(C#Cc2cccc(NC(=O)c3ccc(C)nc3)c2)c1 (10 µM),-0.106,-0.118
FC(F)(F)c1cc(Cl)ccc1-n1nnnc1CCl (10 µM),0.33,0.087

# Some of these compounds in order of heavy-atom count, largest number first.
Structure (SMILES),XPO1 fluorescence intensity change (log2) [1],BRD4 median nuclear fluorescence intensity change (log2) [2]
COc1ccc(/C=C(\C(=O)c2cccs2)N2C=CC=CC2=C(C#N)C#N)c(OC)c1 (10 µM),-0.014,0.0855
COc1cn(-c2ccccc2)nc1C(=O)Nc1cccnc1N1CCCC1 (1 µM),0.0341,0.111
CCn1c(SC(C)C(=O)Nc2cc(C)no2)nc2ccccc21 (stereo not drawn) (10 µM),0.121,0.117
